PubChem BioAssay AID1259405, NCATS – 2018
Test: 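Knock-downs that lift recombinant protein yield in hamster ovary cells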 (primary screen). Cell system: Chinese hamster CHO-K1 ovary cells with stable secreted eGFP expression. Reagents: single siRNA against mouse genes, 0.8 pmol siRNA per well (2 µl of 400 nM stock). Timing: 3 days. Measured: 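Percent of the per-plate non-targeting control median for intracellular GFP per well by laser scanning cytometry and for cell viability by ATP luminescence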. Scale: GFP, % of control: higher = more GFP per well, higher productivity; viability (ATP), % of control: higher = more viable cells (more ATP). Hit rule: 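a knock-down is called active if GFP reaches 120% or more of non-targeting control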.
The whole screen tested about 50,000 reagents; below is a random part of them. Of all reagents, about 4,000 (8%) are marked active. 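Mouse siRNA library applied to hamster cells; one well for each siRNA.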 The numbers tell different reagents against one gene apart.

For Tmem72 #1 the deposit lists GFP, % of control 59.6; viability (ATP), % of control 67.3; inactive.
For Tmem72 #2 the deposit lists GFP, % of control 86.6; viability (ATP), % of control 79.9; inactive.
With knock-down of Tmem72 #3, the screen gave GFP, % of control 121; viability (ATP), % of control 122; active.
For Foxn2 #1, the entry reads GFP, % of control 71.2; viability (ATP), % of control 98; inactive.
Against Foxn2 #2, the entry reads GFP, % of control 90.5; viability (ATP), % of control 86.7; inactive.
After knock-down of Tab2 #1, the record shows GFP, % of control 117; viability (ATP), % of control 128; inactive.
With knock-down of Tab2 #2, the screen gave GFP, % of control 114; viability (ATP), % of control 95.7; inactive.
After knock-down of Btbd9 #1, the screen gave GFP, % of control 97.9; viability (ATP), % of control 105; inactive.
After knock-down of Btbd9 #2, the screen gave GFP, % of control 95.8; viability (ATP), % of control 81.9; inactive.
Depletion of Btbd9 #3 came out at: GFP, % of control 136; viability (ATP), % of control 143; active.
H2-Q5 #1 showed GFP, % of control 73; viability (ATP), % of control 79.5; inactive.
H2-Q5 #2 showed GFP, % of control 76.9; viability (ATP), % of control 79.6; inactive.
After knock-down of H2-Q5 #3 the results were GFP, % of control 107; viability (ATP), % of control 52.5; inactive.
Silencing of Mrps11 #1 came out at: GFP, % of control 60.3; viability (ATP), % of control 32.6; inactive.
For Mrps11 #2 the deposit lists GFP, % of control 57.9; viability (ATP), % of control 47.1; inactive.
After knock-down of Mrps11 #3, the record shows GFP, % of control 39.7; viability (ATP), % of control 47.5; inactive.
For Mapk4, the entry reads GFP, % of control 72.6; viability (ATP), % of control 84; inactive.
After knock-down of Tlr12 #1 the results were GFP, % of control 77.9; viability (ATP), % of control 41.9; inactive.
Depletion of Tlr12 #2 resulted in: GFP, % of control 50.8; viability (ATP), % of control 44.4; inactive.
After knock-down of Tlr12 #3, the record shows GFP, % of control 70.7; viability (ATP), % of control 72.5; inactive.
Rpl17 #1 showed GFP, % of control 43; viability (ATP), % of control 38.3; inactive.
Rpl17 #2 showed GFP, % of control 62.6; viability (ATP), % of control 60.3; inactive.
For Rpl17 #3, the entry reads GFP, % of control 36.1; viability (ATP), % of control 47.2; inactive.
Against Pcmtd2 #1, the values are GFP, % of control 79.5; viability (ATP), % of control 81.9; inactive.
Knock-down of Pcmtd2 #2 resulted in: GFP, % of control 60.9; viability (ATP), % of control 42.1; inactive.
For Pcmtd2 #3, the values are GFP, % of control 34.4; viability (ATP), % of control 30.8; inactive.
Depletion of Dph6 #1 came out at: GFP, % of control 80.4; viability (ATP), % of control 79.8; inactive.
For Dph6 #2, the entry reads GFP, % of control 82.7; viability (ATP), % of control 65.1; inactive.
After knock-down of Dph6 #3, the screen gave GFP, % of control 80; viability (ATP), % of control 96.1; inactive.
Against Trim42 #1, the values are GFP, % of control 27.6; viability (ATP), % of control 24.5; inactive.
For Trim42 #2 the deposit lists GFP, % of control 89.1; viability (ATP), % of control 90.2; inactive.
Silencing of Trim42 #3 came out at: GFP, % of control 90.6; viability (ATP), % of control 118; inactive.

Copied from the list:
Result for Trim42 #3 under “Outcome”: inactive
Under “viability (ATP), % of control”, Foxn2 #1 has 98
Under “Outcome”, Dph6 #1 shows inactive
Result for Foxn2 #2 under “viability (ATP), % of control”: 86.7
Value for Rpl17 #2 in “Outcome”: inactive
Value for Tlr12 #2 under “GFP, % of control”: 50.8

Next records:
Pacs1 #1 showed GFP, % of control 58.3; viability (ATP), % of control 41.3; inactive.
Against Pacs1 #2, the entry reads GFP, % of control 35.2; viability (ATP), % of control 46.2; inactive.
Depletion of Pacs1 #3 resulted in: GFP, % of control 124; viability (ATP), % of control 91.7; active.
For Hars1 #1, the values are GFP, % of control 105; viability (ATP), % of control 78.4; inactive.
Against Hars1 #2, the entry reads GFP, % of control 84.2; viability (ATP), % of control 75.7; inactive.
After knock-down of Hars1 #3, the record shows GFP, % of control 137; viability (ATP), % of control 80; active.
Depletion of Crh #1 gave: GFP, % of control 83.8; viability (ATP), % of control 88.8; inactive.
After knock-down of Crh #2, the screen gave GFP, % of control 107; viability (ATP), % of control 94.3; inactive.
Depletion of Tchhl1 #1 came out at: GFP, % of control 196; viability (ATP), % of control 80.3; active.
For Tchhl1 #2, the entry reads GFP, % of control 93.6; viability (ATP), % of control 78.1; inactive.
After knock-down of Tchhl1 #3, the screen gave GFP, % of control 52.1; viability (ATP), % of control 53.5; inactive.
Polr1has #1 scored GFP, % of control 44.9; viability (ATP), % of control 39; inactive.
Knock-down of Polr1has #2 came out at: GFP, % of control 64.3; viability (ATP), % of control 82.5; inactive.
Against Polr1has #3 the deposit lists GFP, % of control 50.4; viability (ATP), % of control 89.5; inactive.
Silencing of Cpe #1 resulted in: GFP, % of control 148; viability (ATP), % of control 128; active.
For Cpe #2, the entry reads GFP, % of control 70.6; viability (ATP), % of control 64.5; inactive.
Knock-down of Cpe #3 came out at: GFP, % of control 57.3; viability (ATP), % of control 50.7; inactive.
Depletion of Cpe #4 gave: GFP, % of control 113; viability (ATP), % of control 95.1; inactive.
Cpe #5 showed GFP, % of control 122; viability (ATP), % of control 96.8; active.
Cpe #6 showed GFP, % of control 95.7; viability (ATP), % of control 68.8; inactive.
